Experimental data taken from patent US20090269796A1, “METHODS OF DETECTING AND TREATING MYOCARDIAL ISCHEMIA AND MYOCARDIAL INFARCTION” (THE GENERAL HOSPITAL CORPORATION, priority 2007, published 2009).

Key:
Format in all cases: in vivo, human
[1] = Simultaneous coronary sinus and peripheral plasma sampling after planned MI (13-patient subgroup), LC-MS/MS profiling; conditions: for Ratio CS/P: coronary sinus change versus peripheral change; for Coronary Sinus Median ± IQR Δ (% change from baseline) / Coronary Sinus Median Δ (% change from baseline): coronary sinus plasma; for Peripheral Median ± IQR Δ (% change from baseline) / Peripheral Median Δ (% change from baseline): peripheral plasma of the coronary sinus subgroup
[2] = Metabolite changes in peripheral plasma after planned MI (alcohol septal ablation), LC-MS/MS profiling; conditions: for Median Δ (% change from baseline): peripheral blood; for Observed increase in response to injury: planned MI, range of six representative compounds
From the text: A total of 36 patients undergoing planned MI using alcohol septal ablation for the treatment of symptomatic hypertrophic obstructive cardiomyopathy (HOCM) were included. Inclusion criteria for the cohort were: 1) primary HOCM; 2) septal thickness of 16 mm or greater; 3) resting outflow tract gradient of greater than 30 mmHg, or an inducible outflow tract gradient of at least 50 mm Hg; 4) symptoms refractory to optimal medical therapy; and 5) appropriate coronary anatomy. The most proximal accessible septal branch was instrumented using standard angioplasty guiding catheters and guidewires and 1.5 or 2.0 mm×9 mm Maverick™ balloon catheters. Radiographic and echocardiographic contrast injections confirmed proper selection of the septal branch and balloon catheter position. Ethanol was infused through the balloon catheter at 1 ml per minute. Additional injections in the same or other septal branches were administered as needed, causing cessation of blood flow to the isolated myocardium, and to reduce the gradient to <20 mmHg.^16
Blood was drawn at baseline (just prior to the onset of the ablation) and at minutes, 1 hour, 2 hours, 4 hours and 24 hours following the onset of injury as depicted in FIG. 1. 13 of the 36 patients consented to the placement of a coronary sinus catheter during the ablation, allowing for the simultaneous sampling from coronary sinus and femoral catheters at the baseline, 10-minute and 1-hour time points. The coronary sinus catheter was subsequently removed prior to the patient leaving the catheterization suite.
Samples were obtained from femoral venous catheters during the procedure or, where indicated, from a catheter placed in the coronary sinus. Samples were collected in K2EDTA-treated tubes (Becton Dickinson). All blood samples were centrifuged at 2000×g for 10 minutes to pellet cellular elements. The supernatant plasma was then aliquoted and immediately frozen at −80° C. to minimize freeze-thaw degradation. Additional blood samples were sent to the clinical chemistry laboratory for evaluation of the standard cardiac markers creatine kinase (CK), CK-MB, and Troponin T (Roche Diagnostics).
For the analysis of sugars, ribonucleotides, and organic acids, 200 μl of plasma was subjected to ethanol precipitation (80% ethanol, 19.9% H2O, 0.1% formic acid) at 4° C. for 2 hours, centrifuged at 15000×g for 15 minutes, and the supernatant evaporated in a nitrogen-chamber at 30° C. (Caliper Life Sciences). Samples were reconstituted in 60 μl H2O, and aliquots were separated sequentially and automatically by injection onto three HPLC columns with orthogonal separation characteristics, as previously described.^10 Sugars and ribonucleotides were separated on a Luna amino column (Phenomenex) under normal phase using acetonitrile/water/0.25% ammonium hydroxide/10 mM ammonium acetate at pH 11 in a run time of 3.5 minutes. Organic acids were separated using a Synergi Polar-RP column (Phenomenex) under reverse phase using acetonitrile/water/5 mM ammonium acetate at pH 5.6-6.0 in a run time of 3.5 minutes. For the analysis of amino acids, plasma was diluted 10-fold with H2O and then subjected to reverse phase chromatography on a Luna phenyl-hexyl column (Phenomenex) using acetonitrile/water/0.1% acetic acid at pH 3.5-4.0 in a run time of 1.5 minutes.
The three HPLC columns were connected in parallel via an automated switching valve on a robotic sample loader (Leap Technologies) to a triple quadrupole mass spectrometer (AB4000Q, Applied Biosystem/Sciex), operated in electrospray ionization mode using a turbo ion spray LC/MS interface. Either positive or negative ions were selected for targeted MS/MS analysis using selective reaction monitoring (SRM) conditions. A total of 210 known metabolites were monitored for each sample. Precursor and product ions of metabolites presented in tables are detailed in Table 1, below. […]

[3] = Control cohort: elective diagnostic cardiac catheterization without MI, plasma metabolite changes; conditions: 10-minute or 60-minute time points, P<0.01
[4] = 60 minutes after myocardial injury
[5] = 60 minutes after myocardial injury, derivation cohort (n=20)
[6] = 60 minutes after myocardial injury, validation cohort (n=16)
[7] = 10 minutes after myocardial injury
[8] = 10 minutes after myocardial injury, derivation cohort (n=20)
[9] = 10 minutes after myocardial injury, validation cohort (n=16)

Molecule | Coronary Sinus Median ± IQR Δ (% change from baseline) [1, 4] | Peripheral Median ± IQR Δ (% change from baseline) [1, 4] | Median Δ (% change from baseline) [2, 5] | Median Δ (% change from baseline) [2, 6] | Ratio CS/P [1, 7] | Coronary Sinus Median Δ (% change from baseline) [1, 7] | Peripheral Median Δ (% change from baseline) [1, 7] | other results
Cn1cnc(CCN)c1 [1-methylhistamine] | 17.0% | 12.1% | 12.9% | 33.2% |  |  |  | Ratio CS/P [1, 4]: 1.4
Nc1ncnc2c1ncn2[C@@H]1O[C@H](COP(=O)(O)O)[C@@H](O)[C@H]1O [AMP, adenosine monophosphate] |  |  |  |  | 10.2 | 102.7% | 10.1% | 
C[C@H](N)C(=O)O [Alanine] |  |  | −22.6% | −11.9% |  |  |  | Median Δ (% change from baseline) [2, 8]: −18.2%; Median Δ (% change from baseline) [2, 9]: −12.4%
Nc1ccn([C@H]2C[C@H](O)[C@@H](COP(=O)(O)O)O2)c(=O)n1 [DCMP, deoxycytidine monophosphate] |  |  |  |  | 19.6 | 32.9% | −1.7% | 
N[C@@H](CCC(=O)O)C(=O)O [Glutamic Acid] |  |  |  |  | 1.5 | 55.4% | 37.6% | 
NC(=O)CC[C@H](N)C(=O)O [Glutamine] |  |  |  |  | 1.7 | 9.7% | 5.8% | 
O=CC(O)CO (stereo not drawn) [Glyceraldehyde] |  |  | 14.4% | 24.5% |  |  |  | 
O=C(O)C(CO)OP(=O)(O)O (stereo not drawn) [Glycerate-2-P] | 12.7% | 3.1% |  |  |  |  |  | Ratio CS/P [1, 4]: 4.0
O=P(O)(O)OCC(O)CO (stereo not drawn) [Glycerol-3-P, glycerol-3-phosphate] | 31.3% | −7.9% |  |  |  |  |  | Ratio CS/P [1, 4]: 4.0
O=c1[nH]cnc2nc[nH]c12 [Hypoxanthine] | 331.6% | 275.1% | 301.7% | 342.5% | 1.9 | 237.9% | 128.1% | Ratio CS/P [1, 4]: 1.3; Median Δ (% change from baseline) [2, 8]: 189.6%; Median Δ (% change from baseline) [2, 9]: 249.6%; Observed increase in response to injury [2]: 301%
OC[C@H]1O[C@@H](n2cnc3c(O)ncnc32)[C@H](O)[C@@H]1O [Inosine] |  |  | 51.6% | 35.7% | 8.2 | 86.9% | 10.6% | 
CC(O)C(=O)O (stereo not drawn) [Lactic Acid] |  |  |  |  | 394.5 | 23.5% | 0.06% | 
O=C(O)CC(O)C(=O)O (stereo not drawn) [Malic Acid] | 21.3% | 9.4% |  |  | 4.3 | 29.9% | 6.9% | Ratio CS/P [1, 4]: 2.3
O=C(O)CC(=O)O [Malonic Acid] |  |  | 47.9% | 43.7% | 2.2 | 32.8% | 15.0% | Median Δ (% change from baseline) [2, 8]: 16.0%; Median Δ (% change from baseline) [2, 9]: 24.2%
O=C(O)c1cc(=O)[nH]c(=O)[nH]1 [Orotic Acid] | 22.4% | 0.87% |  |  |  |  |  | Ratio CS/P [1, 4]: 25.9
O=C(O)[C@@H]1CCCN1 [Proline] |  |  | −4.6% | −4.2% |  |  |  | 
N[C@@H](CO)C(=O)O [Serine] |  |  | −10.0% | −8.9% |  |  |  | 
O=C(O)CCC(=O)O [Succinic Acid] | 14.3% | 2.1% |  |  |  |  |  | Ratio CS/P [1, 4]: 6.9
NCCS(=O)(=O)O [Taurine] | 7.3% | 2.1% |  |  |  | 15.1% | −2.0% | Observed increase in response to injury [2]: 15%
C[C@@H](O)[C@H](N)C(=O)O [Threonine] |  |  | −7.5% | −6.9% |  |  |  | Median Δ (% change from baseline) [2, 8]: −10.0%; Median Δ (% change from baseline) [2, 9]: −4.9%
C[N+](C)(C)[O-] [Trimethylamine-N-Oxide] |  |  | −20.2% | −32.4% |  |  |  | Median Δ (% change from baseline) [2, 8]: −15.5%; Median Δ (% change from baseline) [2, 9]: −24.4%
O=c1[nH]c(=O)c2[nH]cnc2[nH]1 [Xanthine] |  |  | 48.1% | 71.9% |  |  |  | 
N[C@@H](Cc1ccccc1)C(=O)O [phenylalanine] |  |  |  |  |  |  |  | Change with cardiac catheterization alone [3]: associated with changes
N[C@@H](Cc1c[nH]c2ccccc12)C(=O)O [tryptophan] |  |  |  |  |  |  |  | Change with cardiac catheterization alone [3]: associated with changes
Aminoisobutyric Acid |  |  | 45.5% | 27.7% |  |  |  | Median Δ (% change from baseline) [2, 8]: 31.7%; Median Δ (% change from baseline) [2, 9]: 2.9%
Isoleucine/Leucine | 13.8% | 9.8% | 10.6% | 13.3% |  |  |  | Ratio CS/P [1, 4]: 1.4; Median Δ (% change from baseline) [2, 8]: 7.0%; Median Δ (% change from baseline) [2, 9]: 7.4%
Ribose-5-P/Ribulose-5-P |  |  |  |  | 2.5 | 18.1% | −7.3% | 
asymmetric dimethyl arginine (ADMA)/symmetric dimethyl arginine (SDMA) [ADMA/SDMA] |  |  |  |  | 5.0 | −14.9% | −2.9% | 
